Source: PubChem BioAssay AID1259308 (NCATS, 2017)
Aim: 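Genes whose loss raises luciferase production in HEK293 cells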 (primary screen). System: human HEK293 embryonic kidney cells stably expressing firefly luciferase (HEK-CMV-Luc2-Hygro). Knock-down reagent: single siRNA against human genes, 0.8 pmol siRNA per well. Time to read-out: 72 h. Measured: 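Luciferase light (ONE-Glo) measured on one replicate plate set and viability (CellTiter-Glo) on the other, scaled to a negative control siRNA, with robust z-scores and luciferase per cell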. Scale: total luciferase, z-score and total luciferase, % of control: higher = more reporter protein produced; luciferase per cell, z-score: higher = more reporter output per viable cell; viable cells, % of control: higher = more viable cells. Rule for the call: 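An siRNA counts as active if its total luciferase robust z-score exceeds 3; genes with two or more such siRNAs out of three were retested with fresh siRNAs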. Meaning of the calls: active = raised luciferase; inactive = no rise.
The whole screen tested about 59,000 reagents; below is a part drawn at random. Of all reagents, about 1,510 (2.6%) got an active call. 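Calls use total luciferase alone and ignore viability, so some active siRNAs may act by altering cell number.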 Unmarked entries are inactive. Reagents against one gene are numbered here. Reagent sequences are not shown.

target	siRNA no.	total luciferase, z-score	total luciferase, % of control	luciferase per cell, z-score	viable cells, % of control
TNRC18P1 (trinucleotide repeat containing 18 pseudogene 1)	1	0.868	99.2	1.61	72.5
TNRC18P1 (trinucleotide repeat containing 18 pseudogene 1)	2	1.09	104	1.4	80.1
TNRC18P1 (trinucleotide repeat containing 18 pseudogene 1)	3	-1.57	50.7	-0.595	66.3
CHODL (chondrolectin)	1	3.84 (active)	158	2.76	85.6
CHODL (chondrolectin)	2	0.067	83.2	0.519	81.1
CHODL (chondrolectin)	3	-1.32	55.6	-1.28	87
LINC00992 (long independently transcribed non-coding RNA 992)	1	0.52	92.2	0.575	88.6
LINC00992 (long independently transcribed non-coding RNA 992)	2	0.0433	82.7	0.354	84.2
LINC00992 (long independently transcribed non-coding RNA 992)	3	3.46 (active)	151	2.41	89.3
CPB1 (carboxypeptidase B1)	1	-0.109	79.7	-0.542	103
CPB1 (carboxypeptidase B1)	2	0.251	86.9	-0.212	103
CPB1 (carboxypeptidase B1)	3	-0.122	79.5	-0.772	109

No new results follow: 2 of the entries above.
target	siRNA no.	total luciferase, z-score	total luciferase, % of control	luciferase per cell, z-score	viable cells, % of control
LINC00992 (long independently transcribed non-coding RNA 992)	2	0.0433	82.7	0.354	84.2
LINC00992 (long independently transcribed non-coding RNA 992)	3	3.46 (active)	151	2.41	89.3

Additional reagents follow.
target	siRNA no.	total luciferase, z-score	total luciferase, % of control	luciferase per cell, z-score	viable cells, % of control
ZMYM2 (zinc finger MYM-type containing 2)	1	-0.751	67	-1.11	100
ZMYM2 (zinc finger MYM-type containing 2)	2	-0.146	79	-0.167	92.2
ZMYM2 (zinc finger MYM-type containing 2)	3	-0.474	72.5	-1.25	112
NIT1 (nitrilase 1)	1	-0.2	77.9	-0.254	93.1
NIT1 (nitrilase 1)	2	1.42	110	1.34	86.4
NIT1 (nitrilase 1)	3	0.561	93	0.86	82.9
PRDM9 (PR/SET domain 9)	1	0.0486	82.9	0.867	73.7
PRDM9 (PR/SET domain 9)	2	0.0747	83.4	-0.42	104
PRDM9 (PR/SET domain 9)	3	-0.381	74.3	1.35	58.2
PAH (phenylalanine hydroxylase)	1	0.742	96.6	0.187	103
PAH (phenylalanine hydroxylase)	2	0.277	87.4	0.0524	96.3
PAH (phenylalanine hydroxylase)	3	-0.74	67.2	-0.856	94
